# Data as given in PubChem BioAssay AID602196 (INSERM, 2012).
# Purpose: 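Knock-downs that protect lung cancer cells from cisplatin or sensitise them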
# Cells: human A549 lung cancer cells
# Reagent: siRNA pair against human genes
# Timing: 48 h transfection before cisplatin; time from cisplatin to read-out not stated
# Conditions: cisplatin at a dose killing half of control-siRNA cells; exact dose and duration not given
# Detection: 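Shift in cisplatin death relative to control siRNA, from -50 (all cells die) to +50 (no cells die); siRNAs harmful on their own scored 0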
# Scale: two-siRNA summed score (-2 to +2): higher = both siRNAs protect from cisplatin killing; -2 means both sensitise; mean protection from cisplatin (shift in death) and protection from cisplatin (shift in death), siRNA C and protection from cisplatin (shift in death), siRNA D: higher = protection from cisplatin killing
# Call rule: 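Each siRNA scores 0 if harmful alone by LDH or WST-1, otherwise +1 if it reduces and -1 if it increases cisplatin killing; a gene is active when both siRNAs agree (sum +2 or -2)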
# Meaning of the calls: active = both siRNAs shift cisplatin killing the same way; inactive = no consistent shift, or siRNA harmful alone
# This is an unselected part of about 23,000 reagents. 455 of them (2%) were called active. 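Active includes both protection and sensitisation; some change values fall well beyond the stated -50 to +50 range.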 A number with no mark means an inactive call. Reagent sequences are not shown. The record does not give: the amount of reagent.
gene,two-siRNA summed score (-2 to +2),mean protection from cisplatin (shift in death) (%),"protection from cisplatin (shift in death), siRNA C (%)","protection from cisplatin (shift in death), siRNA D (%)"
GPLD1 (glycosylphosphatidylinositol specific phospholipase D1),0,0.8,-8.1,9.8
QTMAN (queuosine-tRNA mannosyltransferase),0,11.2,10.2,12.1
SLC35G5,0,7.6,6.8,8.5
YTHDF1 (YTH N6-methyladenosine RNA binding protein F1),0,0.5,0.7,0.3
"RBBP4 (RB binding protein 4, chromatin remodeling factor)",0,10.7,13.2,8.2
TXNDC9 (thioredoxin domain containing 9),-1,-19.6,-28.4,-10.7
FAM151A (family with sequence similarity 151 member A),0,15.4,27.9,2.9
EPHB3 (EPH receptor B3),1,5.8,-11.1,22.7
CAAP1 (caspase activity and apoptosis inhibitor 1),0,-2.4,8.9,-13.8
LOC442408,0,-0.4,7.5,-8.4
TRAPPC6A (trafficking protein particle complex subunit 6A),0,-5.4,-1.4,-9.5
LOC400924,0,1.9,7.5,-3.7
LOC90024,0,4.1,5.1,3.1
BMX (BMX non-receptor tyrosine kinase),0,1.4,7.9,-5.2
MMD (monocyte to macrophage differentiation associated),0,24.2,14.1,34.3
PREP (prolyl endopeptidase),0,1.7,-1.7,5.1
REG3A (regenerating family member 3 alpha),0,-6.6,-20.7,7.6
ERLIN1 (ER lipid raft associated 1),-1,-2.5,-10.2,5.2
"OVOS2P (ovostatin 2, pseudogene)",0,9.1,8.1,10
EBF1 (EBF transcription factor 1),0,2.1,-14.2,18.4
RCL1 (RNA terminal phosphate cyclase like 1),2 (active),13,10.3,15.8
LOC441369,0,7.8,6,9.6
LOC200491,1,14.4,8.9,20
LOC440191,0,14.6,14.7,14.5
LOC400575,0,5.6,5.8,5.3
TTPA (alpha tocopherol transfer protein),0,16.1,29.7,2.4
TENT2 (terminal nucleotidyltransferase 2),0,8.9,-6.6,24.4
LOC390282,0,15.3,33.3,-2.7
INPP5A (inositol polyphosphate-5-phosphatase A),0,13.8,35.4,-7.7
ZNF35 (zinc finger protein 35),1,7.8,6,9.5
CD58 (CD58 molecule),0,-1.3,-6.9,4.4
LINC01667 (long independently transcribed non-coding RNA 1667),0,10.6,14.2,7
CSK (C-terminal Src kinase),0,5.2,3.6,6.8
PLCL2 (phospholipase C like 2),0,-19.5,-42.5,3.5
PRR3 (proline rich 3),0,5.2,13.3,-2.9
SPECC1,0,0.6,10.7,-9.5
CHRNA3 (cholinergic receptor nicotinic alpha 3 subunit),0,12.3,4.4,20.1
GHRL (ghrelin and obestatin prepropeptide),0,14.9,33.4,-3.6
KIF1A (kinesin family member 1A),0,0.5,3.4,-2.4
LOC401264,0,6.8,9.3,4.2
PCDH11X (protocadherin 11 X-linked),0,10.6,3.2,18
CD200 (CD200 molecule),0,6.3,9,3.5
SLC25A20,0,13.5,6.6,20.4
MTMR7 (myotubularin related protein 7),1,11.4,12.8,10.1
PRSS22 (serine protease 22),-1,-4,21.3,-29.2
ZNF548 (zinc finger protein 548),0,9.2,9.3,9.1
LINC00642 (long independently transcribed non-coding RNA 642),0,7.2,-0.9,15.2
FLJ38508,2 (active),18.5,19.1,17.9
UTS2R (urotensin 2 receptor),0,1.1,-19,21.2
"ERVK-6 (endogenous retrovirus group K member 6, envelope)",0,-3.9,-2.1,-5.7
ZNF367 (zinc finger protein 367),0,21.7,2.4,41
DSCC1,0,0.9,3.9,-2
EPHA3 (EPH receptor A3),1,15.2,21.7,8.7
UBE2M (ubiquitin conjugating enzyme E2 M),0,7.1,-7.7,22
TTC21B (tetratricopeptide repeat domain 21B),0,-2.7,4.2,-9.6
LOC400505,0,4.5,7.7,1.3
DAXX (death domain associated protein),1,7.2,17.2,-2.9
